No constants are given. Whether binding was seen depends on the method and setting. In cells and extracts the contact can be indirect. Some entries that bind do so weakly or less than the wild type.

By UniProt entry, the sequences of proteins in these tests, tags left out.
UniProt P32243: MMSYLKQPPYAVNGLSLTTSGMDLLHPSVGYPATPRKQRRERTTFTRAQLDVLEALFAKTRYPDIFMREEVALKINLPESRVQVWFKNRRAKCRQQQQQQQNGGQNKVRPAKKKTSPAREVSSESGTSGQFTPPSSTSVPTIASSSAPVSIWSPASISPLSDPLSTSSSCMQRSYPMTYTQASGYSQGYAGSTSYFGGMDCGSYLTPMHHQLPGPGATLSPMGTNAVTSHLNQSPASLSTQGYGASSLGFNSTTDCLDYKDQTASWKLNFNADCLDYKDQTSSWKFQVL
UniProt O94901: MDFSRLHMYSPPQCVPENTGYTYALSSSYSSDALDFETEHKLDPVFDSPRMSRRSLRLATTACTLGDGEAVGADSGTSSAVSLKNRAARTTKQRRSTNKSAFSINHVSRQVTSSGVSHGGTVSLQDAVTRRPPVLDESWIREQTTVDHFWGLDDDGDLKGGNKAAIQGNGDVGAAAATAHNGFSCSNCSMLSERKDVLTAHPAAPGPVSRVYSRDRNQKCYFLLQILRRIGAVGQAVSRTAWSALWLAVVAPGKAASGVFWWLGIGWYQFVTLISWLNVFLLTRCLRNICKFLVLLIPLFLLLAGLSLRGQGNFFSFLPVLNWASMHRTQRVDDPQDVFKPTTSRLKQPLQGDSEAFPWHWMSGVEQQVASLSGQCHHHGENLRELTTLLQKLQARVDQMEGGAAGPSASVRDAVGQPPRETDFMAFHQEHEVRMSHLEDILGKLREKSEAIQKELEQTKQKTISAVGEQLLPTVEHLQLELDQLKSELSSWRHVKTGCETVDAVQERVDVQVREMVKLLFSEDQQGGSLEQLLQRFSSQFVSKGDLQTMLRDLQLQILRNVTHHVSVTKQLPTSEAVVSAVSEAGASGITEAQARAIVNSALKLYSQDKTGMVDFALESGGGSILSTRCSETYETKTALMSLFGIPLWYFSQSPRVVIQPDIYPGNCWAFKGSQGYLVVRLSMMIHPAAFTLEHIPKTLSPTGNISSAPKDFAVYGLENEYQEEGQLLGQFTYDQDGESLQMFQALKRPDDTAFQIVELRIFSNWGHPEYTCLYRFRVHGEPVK

In the test the target is V5-tagged human orthodenticle homeobox 2 (OTX2) (human) (UniProt P32243). The test is described as follows: co-IP; V5-OTX2 co-transfected into HeLa cells together with mRFP-tagged LINC components; co-immunoprecipitation and WB with indicated antibodies.

For the substance “mRFP-tagged SUN1 (Sad1 and UNC84 domain containing 1) (from UniProt O94901 1-785)”, the binding result is given as “binds”.

Values taken from paper PMC9971051.
